## Primary screen of a compound library

Measurements from “University of Dundee, Small-Polar-MMV Screening Library” (2021), ChEMBL document CHEMBL3988442.

A: 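Whole-cell assay for inhibitors of Mycobacterium tuberculosis growth, labelled Cornell in the record; the read-out is not stated. The concentration is filed as 10 mM, unlikely as a test dose, so the dose is not known. Higher means stronger inhibition (inferred from two other growth screens of the library). Of about 53,000 compounds tested this way, about 900 (1.7%) reached 50% or more in at least one test.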
B: 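Assay on Mycobacterium tuberculosis, filed only as a heat shock assay from Cornell; the read-out is not stated. The concentration is filed as 10 mM, unlikely as a test dose, so the dose is not known. Direction is inferred from retests: higher values go with stronger inhibition. About 69,000 compounds were tested under these conditions; 1.4% (about 930) showed 50% or more at least once.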

Values are the deposited “Percent Effect”, in %. How 0% and 100% were set is not recorded. Most values in the screen are low, and negative values occur. The compounds are a random part of those screened. A dash means the value is not listed here; it may have been measured.

compound	A	B
CC(NC(=O)N1CCCN(C)CC1)c1ccc2c(c1)OCCO2 (stereo not drawn)	-	8.744%
O=C(O)C(F)(F)F.[H][C@@]12CCN(C3CCOCC3)[C@@]1([H])CC(=O)N2Cc1csc(C)n1	3.191%	-11.44%
O=C(N1CCC(Oc2ccncc2)C1)C1(c2cccc(F)c2)CC1 (stereo not drawn)	20.64%	-23%
[H][C@@]12CS(=O)(=O)C[C@]1([H])N(C(=O)Cc1ccc(F)c(C)c1)CCN2CC(C)C	-10.35%	-23.31%
O=C(O)C(F)(F)F.O=C(O)C(F)(F)F.O=C(O)C(F)(F)F.[H][C@@]12CCCO[C@]1([H])[C@H](Nc1ccccn1)CN(Cc1ccccn1)C2	29.3%	-0.9756%
Cc1nc[nH]c1CN(Cc1ccc(F)cc1)C1CC(C)(C)NC(C)(C)C1	8.961%	-3.618%
CC(C)(C)OC(=O)N1CCN(S(C)(=O)=O)C2(CCCCC2)C1	12.08%	9.118%
Cc1cccc(NCc2ncc(C(C)(C)C)o2)c1	2.738%	-7.922%
O=C(O)C(F)(F)F.[H][C@@]12C[C@@H](C(=O)NC(C)C)C[C@@]1([H])N(Cc1ccc(OC)cc1)CCO2	23.69%	-27.19%
Cc1c(-c2cc(C(=O)N3CCc4ncc(Cl)cc4C3)on2)cnn1C	6.07%	-7.138%
Cn1nc(Br)c2c(=O)n(CCc3ccccc3)cnc21	-	-3.565%
CN(Cc1cnn(C)c1)Cc1nc(Cc2cccc(Cl)c2)no1	42%	1.695%
COc1ccc(Cl)cc1NCc1cc(C)on1	-	1.368%
Cc1ncc2c(n1)CN(CC(O)COc1ccc(C#N)cc1)CC2 (stereo not drawn)	20.98%	-9.533%
Cc1cc(NC(=O)N(Cc2ccc(C#N)cc2)C(C)C)no1	-	12.66%
NC(=O)[C@@H]1Cc2ccccc2CN1CCc1cccs1	-	-27.82%
CC(=O)N1CCC(c2nc3ccc(NC4CCC4)cn3n2)CC1.O=C(O)C(F)(F)F	9.182%	21.7%
Cc1cc(-c2cnc(NC3CC3)nc2-c2ccoc2C)on1	6.588%	-6.737%
Fc1cccnc1Oc1cc(F)c(CN2CCCC2)c(F)c1	20.54%	-9.668%
Cc1nc(-c2ccc(C(=O)O)cc2)cc(C2CCN(C(C)C)CC2)n1	-42.66%	-21.29%
Cc1noc(CN(Cc2ccc3c(c2)OCCO3)Cc2ccco2)n1	22.4%	-0.9361%
CN(C)CCN1CCC2(CCCN(C(=O)C3CCC3)C2)CC1.O=C(O)C(F)(F)F.O=C(O)C(F)(F)F	29.9%	-16.17%
CN(Cc1cc(Cl)c2c(c1)OCO2)Cc1cscn1	13.66%	7.81%
O=C(NCc1nnc2n1CCC2)NCC1(c2cccc(F)c2)CC1	-	-28.68%
Cc1cnn(CC2CCCN2C(=O)c2ccc3[nH]c(=O)[nH]c3c2)c1 (stereo not drawn)	-	9.514%
Cc1ccccc1C(C)(C)CNC(=O)CN(C)c1cnccn1	9.527%	-8.851%
Cn1c(C(F)(F)F)nn(CCNC(=O)Nc2ccccc2F)c1=O	-51.51%	8.379%
O=S(=O)(C1CC1)N1CCC2(CC1)COC(COc1cccnc1)C2 (stereo not drawn)	4.051%	-15.77%
Cc1cccc(Nc2ccc(C3CCCCN3)cn2)n1 (stereo not drawn)	10.08%	1.178%
COc1cccc2c1OCC(CNC(=O)CNC(N)=O)C2 (stereo not drawn)	8.894%	8.396%
CN1CC(C(=O)N2CCC(Oc3ccccc3Cl)CC2)CC1=O (stereo not drawn)	-	-8.255%
CCC(NC(=O)c1cccc2[nH]ccc12)C(=O)N1CCOCC1 (stereo not drawn)	26.17%	-14.86%
CCOc1ccc(CSC(C)c2nc(C)no2)nc1 (stereo not drawn)	6.464%	-30.57%
O=C(Nc1ccccc1)c1ccc2c(c1)C1(CCCCC1)CN2.O=C(O)C(F)(F)F	18.42%	67.01%
[H][C@@]12CN(C(=O)c3cccnc3)C[C@]1([H])OCCN2CCN1CCCC1	11.59%	6.026%
CN(C(=O)CCNC(=O)NC1CCCCC1)c1ccccc1	-25.68%	2.429%
Cn1ccnc1CN1CCOC(Cn2cccn2)C1 (stereo not drawn)	8.452%	-24.14%
O=C(Cc1cnc(-c2c(Cl)cccc2Cl)s1)N1CCOCC1	-15.62%	-11.24%
CC(O)(CCc1ccccc1)CNC(=O)c1ccsc1 (stereo not drawn)	-24.44%	23.49%
Cc1cnn(CCCNC(=O)C2CCCCN2Cc2cccnc2)c1 (stereo not drawn)	13.65%	17.71%
Cc1nn(C(C)(C)C)c(C)c1C(=O)NCC1(C(N)=O)CCOCC1	6.983%	8.377%
O=C(c1ccsc1)N1CCC(c2nnc(C3CC3)o2)CC1	-	-24.95%
CC(C)Cc1ncc2c(n1)CN(c1nccc(N(C)C)n1)C2	14.54%	7.671%
O=C(O)C(F)(F)F.O=C1COC2(COCCN(c3ccccn3)C2)CN1c1cccc(F)c1 (stereo not drawn)	-1.368%	11.76%
CCc1cnc(C)nc1NC(CC)c1ncnn1CC (stereo not drawn)	-0.05712%	4.322%
CC(C)n1ccnc1C1CCN(Cc2ccc(Cl)s2)CC1	24.33%	-11.31%
CN1CC2(CCN(CCCOCc3ccccc3)CC2)OC1=O	-41.91%	12.47%
O=C(CCCn1cnc2ccccc2c1=O)Nc1nc[nH]n1	-2.236%	-11.12%
CCc1noc(CN2CCCC2c2noc(C3CC3)n2)n1 (stereo not drawn)	9.2%	-1.177%
OC1CCN(Cc2ccc(CNc3ccc(Cl)cn3)cc2)CC1	11.4%	-12.83%
CC(C)(C)C(=O)NCc1cnn2ccccc12	10.65%	18.42%
O=C(NCc1ccc(Br)cc1)C1(O)CCSCC1	26.99%	-41.08%
O=C(O)C(F)(F)F.O=C(O)C(F)(F)F.[H][C@]12CO[C@H](CN(C)C)[C@@]1([H])CCN(C(=O)NCc1cccnc1)C2	21.34%	-10.67%
O=S(=O)(Cc1ccccc1)NC[C@H]1Cn2ccnc2CO1	-22.31%	-17.42%
[H][C@@]12C[C@@H](OCCOC)CN1CCN(C(=O)c1cccnc1)C2	5.078%	1.81%
O=C(NCc1cccnc1N1CCc2ccccc2C1)c1cc(=O)[nH][nH]1	-36.03%	3.96%
CNc1[nH]nc(N)c1C(=O)Nc1ccc(OC)cc1	-4.193%	1.068%
CCCC1(CO)CCCN(Cc2ncccn2)C1 (stereo not drawn)	8.156%	19.26%
COc1ccc(C(C)CCNC2CCN(c3ccccn3)CC2)cc1 (stereo not drawn)	30.13%	2.742%
CCN(CC1CCOC1)C(=O)c1cc(Cl)c2c(c1)OCO2 (stereo not drawn)	-17.83%	-12.25%
CC(=O)NC[C@]1(O)CCN(C(=O)c2ccc(F)c(Cl)c2)C[C@H]1O	-	-13.22%
CCOC(=O)c1cnn(C2CCN(C(=O)CCC(C)C)CC2)c1N	16.47%	4.011%
COc1ccc(-c2nc(C#N)c(N(C)C)o2)cc1OC	-18.71%	-3.277%
CC(C)Cc1cc(C(=O)NCC2CCCN(c3ccccn3)C2)on1 (stereo not drawn)	29.6%	25.95%
O=C(NCCNc1ncccn1)NCc1cccc(OC(F)F)c1	11.14%	12.86%
CCOCCC(=O)Nc1cccc(Cl)c1COC	-23.24%	9.538%
Cc1nc2c(cc1C(=O)O)CCN(Cc1ccsc1)CC2.O=C(O)C(F)(F)F.O=C(O)C(F)(F)F	28.36%	-5.408%
CCc1ncnc2c1CCN(C(=O)Cc1ccccn1)CC2	-	25.27%
[H][C@]12CN(C(=O)COC3CCCC3)C[C@@]1([H])OCCN(S(C)(=O)=O)C2	-8.913%	-11.24%
CC(C)C(=O)NC1COC2(CCN(C(=O)c3ccc[nH]3)CC2)C1 (stereo not drawn)	-	8.874%
CCC1CN(C(=O)c2ccccc2C(C)=O)CCN1C(C)C (stereo not drawn)	-38.19%	-16.4%
Cc1occc1C(=O)N1CCC2(CC1)CN(c1ccccn1)CCO2.O=C(O)C(F)(F)F	15.62%	-25.53%
N#Cc1ccc(C(=O)O)nc1/C=C/c1cccc(F)c1	2.587%	-8.667%
CN(C(=O)Cc1ccc2c(c1)OCCO2)C1CCCC1	-5.151%	-0.7525%

The last 4 entries again:

| compound | A | B |
|---|---|---|
| `CCC1CN(C(=O)c2ccccc2C(C)=O)CCN1C(C)C` (stereo not drawn) | -38.19% | -16.4% |
| `Cc1occc1C(=O)N1CCC2(CC1)CN(c1ccccn1)CCO2.O=C(O)C(F)(F)F` | 15.62% | -25.53% |
| `N#Cc1ccc(C(=O)O)nc1/C=C/c1cccc(F)c1` | 2.587% | -8.667% |
| `CN(C(=O)Cc1ccc2c(c1)OCCO2)C1CCCC1` | -5.151% | -0.7525% |